Reference: patent US20200405659A1, “COMPOSITION CONTAINING 2,3-BUTANEDIOL AS ACTIVE INGREDIENT” (GS CALTEX CORPORATION, priority 2018, published 2020)

Tested on: CCD-986SK cells
Experiment: Protein content of CCD-986SK cell dissolution material (BSA protein assay reagent kit)
Type: cell-based
Settings: 48 hours

| SMILES | Protein (0.50 wt % in serum-free medium) | Protein (0.05 wt % in serum-free medium) | Protein (0.10 wt % in serum-free medium) | Protein (1.00 wt % in serum-free medium) |
| --- | --- | --- | --- | --- |
| CC(O)CCO (stereo not shown) [1,3-butanediol] | 203.25 µg/mL | – | – | – |
| OCCCO [1,3-propanediol] | 207.90 µg/mL | – | – | – |
| C[C@@H](O)[C@@H](C)O [2R,3R-butanediol] | 186.85 µg/mL | 201.41 µg/mL | 199.74 µg/mL | 168.73 µg/mL |
| C[C@H](O)[C@@H](C)O [2R,3S-butanediol] | 187.33 µg/mL | 199.83 µg/mL | 198.54 µg/mL | 165.90 µg/mL |
